For one molecule, binding results are on record in patent US20050112731A1.

Results are given in words; binding and its absence hold for the method and conditions named. Some results given as binding are weak or reduced against the parent protein; the word gives no strength.

This experiment addresses selenomethionyl serine acetyltransferase (SAT) from Escherichia coli, recombinant, expressed from pQE-SAT (Escherichia coli) (UniProt P0A9D4). The experiment can be described thus: X-ray crystal structure (MAD, 2.7 Å); self-association of subunits.

B1: selenomethionyl serine acetyltransferase (SAT) from Escherichia coli, recombinant, expressed from pQE-SAT (enzyme)
chain: MPCEELEIVWNNIKAEARTLADCEPMLASFYHATLLKHENLGSALSYMLANKLSSPIMPAIAIREVVEEAYAADPEMIASAACDIQAVRTRDPAVDKYSTPLLYLKGFHALQAYRIGHWLWNQGRRALAIFLQNQVSVTFQVDIHPAAKIGRGIMLDHATGIVVGETAVIENDVSILQSVTLGGTGKSGGDRHPKIREGVMIGAGAKILGNIEVGRGAKIGAGSVVLQPVPPHTTAAGVPARIVGKPDSDKPSMDMDQHFNGINHTFEYGDGI
modifications: selenomethionine in place of methionine (selenomethionyl SAT)
Regarding B1, the binding result is “binds”.
